Laboratory results from US10898592B2, “Compositions and methods for reducing the risk of post-imaging pancreatitis” (University Of Pittsburgh—Of The Commonwealth System Of …, priority 2015, dated 2021).
At least one structure is not confirmed: it was looked up by name or label, or the drawing left a doubt.

Experiments:
[1] = tested on: calcineurin (NFAT-luciferase); test: NFAT-luciferase activity assay, human acinar cells; assay type: cell-based; conditions: RC at increasing concentrations
Protocol: (§1) NFAT-luciferase activity assay. Acinar cells were infected with Ad-NFAT-luciferase following a previously described procedure^10,15,16. The construct includes a luciferase gene placed downstream of an IL-4 promoter which contains nine tandem NFAT binding sites^10. Acinar cells were incubated with the NFAT-driven luciferase adenovirus for 1.5 hr prior to stimulation. All of the stated inhibitors were added for 30 min prior to stimulation with RC. NFAT-luciferase was measured using the luciferase assay system. Briefly, cells were spun at 1,000 rpm for 5 min, washed with PBS, and lysed using reporter lysis 5× buffer (Promega #E397A, Madison, Wis.). Samples were vortexed and spun at 12,000 g for 2 min. Supernatant was plated, and luminescence was measured using a Synergy H1 plate reader (BioTek, Winooski, Vt.) and normalized to total protein.

[2] = tested on: NF-κB (IκBα, p65); test: Western blot for phospho-IκBα and p65 translocation, primary acinar cells; assay type: cell-based, mouse; conditions: increasing concentrations of RC
[3] = tested on: NF-κB; test: NF-κB-luciferase activity assay, AR42J cells; assay type: cell-based; conditions: 6 hr
Protocol: NF-κB-luciferase activity assay. AR42J cells were differentiated towards an acinar phenotype by administering dexamethasone (100 nM) for 48-72 hr^17. AR42J cells were infected with Ad-NF-κB luciferase 16 h prior to stimulation using a previously described method^12. Following a wash with DMEM/F12 medium, acinar cells were evenly distributed in a 48-well plate and incubated for 30 min at 37° C. They were incubated with RC at varying concentrations and times. NF-κB-luciferase was measured using a commercially available luciferase assay (Promega, Madison, Wis.). Briefly, cells were spun at 1,000 rpm for 5 min, washed with PBS, and lysed using reporter lysis 5× buffer (Promega, catalog no. E397A). Samples were vortexed and spun at 12,000×g for 2 min. The supernatant was plated, and luminescence was measured using a Synergy H1 plate reader (BioTek, Winooski, Vt.) and normalized to total […].

[4] = tested on: human pancreatic acinar cells; test: Ca^2+ signals (Fluo-4AM) in human acinar cells; assay type: cell-based
[5] = tested on: calcineurin (NFAT-luciferase); test: NFAT-luciferase activity assay, AR42J cells; assay type: cell-based; conditions: AR42J cells
Protocol: as §1

[6] = tested on: mouse pancreatic acinar cells; test: Ca^2+ signals (Fluo-4AM) in mouse pancreatic acinar cells; assay type: cell-based
Protocol: Detection and analysis of cellular Ca^2+ signals from mouse and human acini. Acinar cells were loaded at room temperature with the high-affinity Ca^2+-sensing dye Fluo-4AM (Kd=300 nM; Invitrogen). Acinar cells were plated on acid-washed glass coverslips and then mounted on a perifusion chamber. Thereupon, they were stimulated at room temperature with varying concentrations of RC (17-50%) diluted in HEPES buffer. Carbachol (1 mM) was given at the end of each experiment to confirm that the cells were intact and could mobilize intracellular Ca^2+ stores. A Zeiss LSM710 laser scanning confocal microscope was used with a 20×, 1.4 numerical aperture objective. The dye was excited at 488 nm wavelength, and emission signals of >515 nm were collected every 2 sec. Fluorescence from individual acinar cells was recorded. Analysis of recordings was performed using ImageJ software (NIH, Bethesda, Md.), and mean fluorescence over time in each region was graphed.
Preparation of mouse pancreatic acini for Ca^2+ imaging. Groups of pancreatic acinar cells were isolated as previously described^26,69, with minor modifications. Briefly, the pancreas was removed, and then minced for 5 min in buffer containing 20 mM HEPES (pH 7.4), 95 mM NaCl, 4.7 mM KCl, 0.6 mM MgCl2, 1.3 mM CaCl2=, 10 mM glucose, and 2 mM glutamine, plus 1% BSA, 1×MEM nonessential amino acids (GIBCO/BRL), 200 units/ml type-4 collagenase (Worthington, Freehold, N.J.), and 1 mg/ml soybean trypsin inhibitor. The tissue was incubated for 30 min at 37° C. with shaking at 90 rpm. The digest was transferred to a 15 mL conical tube and washed with collagenase-free buffer. The suspension was vigorously shaken for 15-20 sec to separate the cells into smaller clusters.

[7] = Omnipaque 300 at full strength; cited from earlier work
[8] = tested on: COS7 cells; test: Ca^2+ signals (Fluo-4AM) in COS7 cells; assay type: cell-based; conditions: RC 25-75%
[9] = tested on: calcineurin (NFAT-luciferase); test: NFAT-luciferase activity assay (calcineurin activation), mouse primary acinar cells; assay type: cell-based; conditions: primary acinar cells
Protocol: as §1

[10] = tested on: AR42J cells; test: Ca^2+ signals (Fluo-4AM) in AR42J cells; assay type: cell-based; conditions: RC (iohexol; 10-25%)
[11] = tested on: HEK293 cells; test: Ca^2+ signals (Fluo-4AM) in HEK293 cells; assay type: cell-based; conditions: RC 25-75%
[12] = Osmolality of iohexol (calculated, osmometer); assay type: physicochemical; conditions: for Measured (mOsm/kg): osmometer

SMILES: CC(=O)N(CC(O)CO)c1c(I)c(C(=O)NCC(O)CO)c(I)c(C(=O)NCC(O)CO)c1I (stereo not shown) [RC, iohexol]
- calcineurin activation (NFAT-luciferase) [1]: calcineurin activation
- p65 localisation [2]: nuclear translocation of p65
- phosphorylation of IκBα ([2]; 15 or 30 min): induced phosphorylation of IκBα at Serine 32
- NF-κB-luciferase on exposure to radiocontrast [3]: concentration- and time-dependent increase
- time of emergence of Ca^2+ transient after RC exposure ([4]; human acinar cells): 1 to 2 min
- Ca^2+ signals ([4]; live human acinar cells from cadaveric donors, RC 10-50%): induced Ca^2+ signals
- calcineurin/NFAT activation on exposure to radiocontrast [5]: calcineurin was activated
- Ca^2+ signal elicited ([6]; 17% to 20% RC): low-amplitude Ca^2+ transients
- time to Ca^2+ transients ([6]; 17% to 20% RC): ≤ 100 s
- Ca^2+ signal elicited ([6]; RC 25% and then 33%): peak-plateau Ca^2+ waves
- Ca^2+ signal in Ca^2+-free media ([6]; RC 25%, Ca^2+-free media): initiated in the same way
- time of emergence of Ca^2+ transient after RC exposure ([6]; mouse acinar cells): 1 to 2 min
- osmolality [7]: 672 mOsm/kg
- robust Ca^2+ signals [8]: not observed
- NFAT-luciferase on RC exposure [9]: concentration-dependent increase
- Ca^2+ signals [10]: induced Ca^2+ signals
- robust Ca^2+ signals [11]: not observed
- Calculated (mOsm/kg) ([12]; Radiocontrast 5%): 347 mOsm/kg
- Measured (mOsm/kg) ([12]; Radiocontrast 5%): 356 mOsm/kg
- Calculated (mOsm/kg) ([12]; Radiocontrast 10%): 364 mOsm/kg
- Measured (mOsm/kg) ([12]; Radiocontrast 10%): 396 mOsm/kg
- Calculated (mOsm/kg) ([12]; Radiocontrast 15%): 381 mOsm/kg
- Measured (mOsm/kg) ([12]; Radiocontrast 15%): 409 mOsm/kg
- Calculated (mOsm/kg) ([12]; Radiocontrast 25%): 416 mOsm/kg
- Measured (mOsm/kg) ([12]; Radiocontrast 25%): 459 mOsm/kg
